{"sequences": {"note": "By UniProt entry, the sequences of proteins in these tests, tags left out. Residues count along the entry.", "UniProt P95493, residues 577-736": "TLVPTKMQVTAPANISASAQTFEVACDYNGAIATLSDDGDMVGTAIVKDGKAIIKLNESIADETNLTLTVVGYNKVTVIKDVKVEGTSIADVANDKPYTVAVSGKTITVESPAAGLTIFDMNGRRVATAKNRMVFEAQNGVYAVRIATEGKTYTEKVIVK"}, "source": "paper PMC4804311", "target": "wild-type recombinant IgSF-CTD tandem of gingipain B (RgpB) (Porphyromonas gingivalis W83) (UniProt P95493)", "assay": "SAXS; SEC fractions diluted to 1.5 mg/mL and a concentration series down to 10% of it, in gel filtration buffer; molecular weight from I(0) and shape reconstructions; both purified", "note": "These are yes or no findings as the source states them, for the method shown."}
{"substance": "wild-type recombinant IgSF-CTD tandem of gingipain B (RgpB) (from UniProt P95493 577-736) (domain or fragment)", "values": [{"measurement": "binding", "value": "no binding (tested: 1.5 mg/mL)"}]}
